No constants are given. Whether binding was seen depends on the method and setting. Binding seen in cells or lysates may run through a third protein. These calls come from enrichment with a bait or labelling near it, and not all partners need be listed.
Molecular target: cell adhesion molecule L1 (mouse (endogenous in brain)) (UniProt P11627)
Experiment: affinity purification with mass spectrometry; co-immunoprecipitation of L1 from 5- to 7-day-old wild-type mouse brain, mass spectrometry of the precipitate

The chains behind the UniProt entries cited, without tags or fusion partners. Residues count along the entry.
UniProt P11627, residues 20-1260: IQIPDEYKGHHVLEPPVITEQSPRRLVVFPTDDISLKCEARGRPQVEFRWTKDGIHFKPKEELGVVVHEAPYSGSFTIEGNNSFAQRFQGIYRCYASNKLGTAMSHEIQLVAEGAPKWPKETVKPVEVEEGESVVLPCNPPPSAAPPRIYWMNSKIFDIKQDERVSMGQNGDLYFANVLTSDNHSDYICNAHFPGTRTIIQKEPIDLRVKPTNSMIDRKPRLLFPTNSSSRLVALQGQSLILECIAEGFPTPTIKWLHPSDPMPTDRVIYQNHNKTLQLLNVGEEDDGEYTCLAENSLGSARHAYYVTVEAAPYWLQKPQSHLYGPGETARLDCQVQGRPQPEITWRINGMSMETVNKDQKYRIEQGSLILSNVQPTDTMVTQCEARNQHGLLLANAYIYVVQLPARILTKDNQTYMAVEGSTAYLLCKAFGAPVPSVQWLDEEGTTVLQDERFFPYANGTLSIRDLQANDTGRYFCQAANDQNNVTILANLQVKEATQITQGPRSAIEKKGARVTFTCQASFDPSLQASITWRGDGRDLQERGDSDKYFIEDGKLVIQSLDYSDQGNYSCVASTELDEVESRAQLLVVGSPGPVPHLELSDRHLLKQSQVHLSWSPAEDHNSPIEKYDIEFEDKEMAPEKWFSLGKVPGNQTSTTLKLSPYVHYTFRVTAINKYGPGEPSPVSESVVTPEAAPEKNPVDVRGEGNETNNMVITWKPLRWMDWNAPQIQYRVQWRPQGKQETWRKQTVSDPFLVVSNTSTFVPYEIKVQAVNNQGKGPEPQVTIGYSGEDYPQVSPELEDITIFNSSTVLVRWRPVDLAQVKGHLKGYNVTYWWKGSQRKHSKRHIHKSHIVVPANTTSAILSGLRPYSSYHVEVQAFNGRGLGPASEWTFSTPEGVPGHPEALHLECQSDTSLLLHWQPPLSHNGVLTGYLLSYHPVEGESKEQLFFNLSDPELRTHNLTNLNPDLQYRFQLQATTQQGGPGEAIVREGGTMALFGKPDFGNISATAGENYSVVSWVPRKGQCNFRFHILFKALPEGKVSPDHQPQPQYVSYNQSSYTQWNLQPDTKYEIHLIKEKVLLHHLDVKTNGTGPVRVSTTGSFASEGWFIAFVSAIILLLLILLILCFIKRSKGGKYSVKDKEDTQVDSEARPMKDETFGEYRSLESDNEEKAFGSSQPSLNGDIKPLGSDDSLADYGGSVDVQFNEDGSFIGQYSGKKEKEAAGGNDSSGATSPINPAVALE

B1: topoisomerase 1 (Top1) (enzyme, UniProt Q04750 1-767)
chain: MSGDHLHNDSQIEADFRLNDSHKHKDKHKDREHRHKEHKKDKDKDREKSKHSNSEHKDSEKKHKEKEKTKHKDGSSEKHKDKHKDRDKERRKEEKIRAAGDAKIKKEKENGFSSPPRIKDEPEDDGYFAPPKEDIKPLKRLRDEDDADYKPKKIKTEDIKKEKKRKSEEEEDGKLKKPKNKDKDKKVAEPDNKKKKPKKEEEQKWKWWEEERYPEGIKWKFLEHKGPVFAPPYEPLPESVKFYYDGKVMKLSPKAEEVATFFAKMLDHEYTTKEIFRKNFFKDWRKEMTNDEKNTITNLSKCDFTQMSQYFKAQSEARKQMSKEEKLKIKEENEKLLKEYGFCVMDNHRERIANFKIEPPGLFRGRGNHPKMGMLKRRIMPEDIIINCSKDAKVPSPPPGHKWKEVRHDNKVTWLVSWTENIQGSIKYIMLNPSSRIKGEKDWQKYETARRLKKCVDKIRNQYREDWKSKEMKVRQRAVALYFIDKLALRAGNEKEEGETADTVGCCSLRVEHINLHPELDGQEYVVEFDFPGKDSIRYYNKVPVEKRVFKNLQLFMENKQPEDDLFDRLNTGILNKHLQDLMEGLTAKVFRTYNASITLQQQLKELTAPDENVPAKILSYNRANRAVAILCNHQRAPPKTFEKSMMNLQSKIDAKKDQLADARRDLKSAKADAKVMKDAKTKKVVESKKKAVQRLEEQLMKLEVQATDREENKQIALGTSKLNYLDPRITVAWCKKWGVPIEKIYNKTQREKFAWAIDMTDEDYEF
- binding: binds

From paper PMC8748658
